# Data reported in the supplement of paper PMC10689618.
# Where a name gives a salt, the structure may show the parent alone. This is one part of the list. Single values are uncertain, as repeats are few or missing.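 Labelled rat cortical synaptosomes were engulfed by primary human fetal astrocytes. Engulfment equaled a red/green ratio, corrected for calcein live-cell signal and normalized to the plate median. Compounds were toxic when calcein dropped over 30%, and reduced phagocytosis when below 70% of the median above 5 µM.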
# Key:
# Human fetal astrocytes [1] = experiment: loss of total cells relative to no-compound high-control median (toxicity); higher = more toxic (fewer cells); conditions: 24 h
# Human fetal astrocytes [2] = experiment: synaptosome phagocytosis (pHrodo/calcein intensity ratio) relative to plate median of data wells; higher = more phagocytosis; conditions: 24 h
Structure (SMILES),loss of total cells (Human fetal astrocytes [1]; 1.39 µM) [%],loss of total cells (Human fetal astrocytes [1]; 2.78 µM) [%],loss of total cells (Human fetal astrocytes [1]; 5.56 µM) [%],loss of total cells (Human fetal astrocytes [1]; 11.11 µM) [%],loss of total cells (Human fetal astrocytes [1]; 22.22 µM) [%],synaptosome phagocytosis (Human fetal astrocytes [2]; 1.39 µM) [%],synaptosome phagocytosis (Human fetal astrocytes [2]; 2.78 µM) [%],synaptosome phagocytosis (Human fetal astrocytes [2]; 5.56 µM) [%],synaptosome phagocytosis (Human fetal astrocytes [2]; 11.11 µM) [%],synaptosome phagocytosis (Human fetal astrocytes [2]; 22.22 µM) [%]
O=c1[nH]c2ccccc2c2ccccc12 [6(5H)-Phenanthridinone],-0.9,-12.3,4.5,12.6,-2.5,114,111,122,97.6,88.1
NC1(C(=O)O)CCCCC1 [1-Amino-1-cyclohexanecarboxylic acid hydrochloride],-19.8,-3.3,-23.5,-23.8,2.6,78.5,90,114,100,112
O=[N+]([O-])c1cccc2c(Br)[nH]nc12 [3-Bromo-7-nitroindazole],0.4,6.6,-18,2.2,-10.9,157,140,102,110,121
c1ccc2c(CC3=NCCN3)cccc2c1 [Naphazoline hydrochloride],-31.8,11.3,-11.7,-3.8,27.1,88.7,101,92.8,103,83.2
N#C/C(=C/c1ccc(O)c(O)c1)C(=O)N1CCc2ccccc21 [Tyrphostin AG 528],-12.7,-10.5,-6.7,-11.9,-18.9,117,109,95.5,81.6,87.6
CCCCCCCCCCCCCCCCCC(=O)OC(CC(=O)O)C[N+](C)(C)C (racemic) [DL-Stearoylcarnitine chloride],2.8,-6.3,-9,-11.9,-6.6,110,99.5,92,87,84.7
"N[C@@H](Cc1ccc(O)c(O)c1)C(=O)O [L-3,4-Dihydroxyphenylalanine]",3.8,-7.7,10.7,18.4,6.4,87.7,112,125,92.1,100
CCCN(CC1CC1)c1nc(C)nc(Nc2c(Cl)cc(Cl)cc2Cl)c1Cl,-4.6,-3.4,-2.5,-22,-13.6,92.7,81.9,85.9,98.7,87
OCc1cc(C(O)CNCCCCCCOCCCCc2ccccc2)ccc1O (stereo not given) [Salmeterol xinafoate],-6.5,-20.7,-13.5,-22.6,-17.3,92,82.7,61.5,72.5,43.1
Oc1cc(O)cc(/C=C/c2ccc(O)c(O)c2)c1 [Piceatannol],-9,2.3,21.1,14.3,7.5,109,90.4,81.4,66.6,39.9
NCCNS(=O)(=O)c1cccc2cnccc12 [H-9 dihydrochloride],4,4.8,4.1,-17.5,-7.1,108,101,92.3,81.3,90.2
N#Cc1cc2nc(O)c(O)nc2cc1[N+](=O)[O-] [CNQX disodium],-10.5,-15.4,-10.7,-16.6,-12,100,92.4,90.3,91,86.6
"CC(C)NCC(O)c1ccc(O)c(O)c1 (single isomer, unassigned; (-)) [(-)-Isoproterenol hydrochloride]",-2.4,12.2,4.2,14.3,11.2,96.4,88.6,99.8,131,76.1
NC(N)=N[C@@H](CCC(=O)O)C(=O)O [alpha-Guanidinoglutaric acid],12.1,-12,5.8,-13,8.8,141,114,108,81,113
CSc1nc(N)c2ncn([C@@H]3O[C@H](COP(=O)(O)OP(=O)(O)O)[C@@H](O)[C@H]3O)c2n1 [2-Methylthioadenosine diphosphate trisodium],-6.2,8.6,23,0,15,96.6,110,116,137,111
Cn1cnc([N+](=O)[O-])c1Sc1ncnc2[nH]cnc12 [Azathioprine],-18.3,-8.7,-10.6,-26.5,-11.7,63.2,118,109,94.2,131
N=C(N)SCCN [2-(2-Aminoethyl)isothiourea dihydrobromide],-23.9,-7.8,6.9,8.5,17.7,80.6,106,60.8,90.9,94.5
Nc1nc2ccc(OC(F)(F)F)cc2s1 [Riluzole],-9.6,-11.7,-5.6,-9.6,-14,111,94.7,118,129,83.5
"CCCn1c(=O)c2c(ncn2C)n(CCC)c1=O [1,3-Dipropyl-7-methylxanthine]",-21.3,-24.8,-2.5,-22.9,-5.6,93.1,76.2,93,124,106
CN(C)c1cc2c(Nc3ccc4c(cnn4Cc4ccccc4)c3)ncnc2cn1,-11.3,-21.4,3.3,-13,0.8,102,86.3,114,73.1,85.3
C[C@]12CCC(=O)C=C1CC[C@@H]1[C@@H]2[C@@H](O)C[C@@]2(C)[C@H]1CC[C@]2(O)C(=O)COC(=O)CCC(=O)O [Hydrocortisone 21-hemisuccinate sodium],9.6,-6.8,0.8,-30,17.6,74.5,106,101,113,104

Structure (SMILES),loss of total cells (Human fetal astrocytes [1]; 1.39 µM) [%],loss of total cells (Human fetal astrocytes [1]; 2.78 µM) [%],loss of total cells (Human fetal astrocytes [1]; 5.56 µM) [%],loss of total cells (Human fetal astrocytes [1]; 11.11 µM) [%],loss of total cells (Human fetal astrocytes [1]; 22.22 µM) [%],synaptosome phagocytosis (Human fetal astrocytes [2]; 1.39 µM) [%],synaptosome phagocytosis (Human fetal astrocytes [2]; 2.78 µM) [%],synaptosome phagocytosis (Human fetal astrocytes [2]; 5.56 µM) [%],synaptosome phagocytosis (Human fetal astrocytes [2]; 11.11 µM) [%],synaptosome phagocytosis (Human fetal astrocytes [2]; 22.22 µM) [%]
Cc1nc2c([nH]1)c(=O)n(C)c(=O)n2Cc1ccco1 [Furafylline],3.8,-10.3,-2.5,-20.2,13.6,118,119,89.3,120,105
Cc1ccc(=O)n(-c2ccccc2)c1 [Pirfenidone],-21.3,-5.9,-13.6,16.2,15,92.4,72.8,114,104,134
CSC(=N)NCCC[C@H](N)C(=O)O [S-Methyl-L-thiocitrulline acetate],-21.3,-7.7,5.2,12.4,5.6,91.5,114,106,103,147
"CN(C)CCC(c1ccc(Cl)cc1)c1ccccn1 (single isomer, unassigned; (+)) [(+)-Chlorpheniramine maleate]",-12.1,-16.5,-12.4,-6.7,1.1,102,109,84.2,101,124
CC1=C(/C=C/C(C)=C/C=C/C(C)=C/C(=O)Nc2ccc(O)cc2)C(C)(C)CCC1 [Retinoic acid p-hydroxyanilide],-9.6,-5.1,-2.5,1.3,0.8,117,104,114,96.8,104
NC(=O)c1cccc(N)c1 [3-aminobenzamide],-8.1,-14.1,-2.3,-12.1,9.4,131,105,115,122,133
CCCCCCCC/C=C\CCCCCCCC(=O)O [Oleic Acid],6.2,20.4,26.8,-2.9,16.8,101,157,136,147,116
COc1cccc(C(=O)NCCN2CCN(c3ccc(Cl)cc3)CC2)c1,-21.3,-17.1,-18,-5.8,11.7,81.5,95.9,95.5,97.7,127
CNCC[C@@H](Oc1ccccc1C)c1ccccc1 [Tomoxetine],-29.5,-42.2,-1.1,3.4,-0.8,86.7,97.9,102,80.1,95
CC(=O)O[C@H]1C[C@@]2(C)[C@@H](C[C@@H](O)[C@H]3[C@@]4(C)CC[C@@H](O)[C@@H](C)[C@@H]4CC[C@@]32C)/C1=C(\CCC=C(C)C)C(=O)O [Fusidic acid sodium],9.6,-29.1,-9.9,-19.3,5.6,82.1,95.6,86.3,112,115
CCN(CC)CCCC(C)Nc1ccnc2cc(Cl)ccc12 (stereo not given) [Chloroquine diphosphate],-21.7,-19.8,-6.9,-2.2,-3.4,100,80.4,120,68.1,95.2
CN1CCc2cc(Cl)c(O)cc2[C@@H](c2ccccc2)C1,4.6,-22.2,1.6,-18.4,-8.8,99.9,101,96.6,99.5,94.4
OC1(c2ccc(Cl)cc2)CCN(Cc2c[nH]c3ccccc23)CC1,-0.5,-27.6,10.8,16.2,20.6,114,109,87.4,88.6,94.8
COc1ccc(CCN(C)CCc2ccc(OC)c(OC)c2)cc1OC [YS-035 hydrochloride],-29.5,0.9,10.1,-15.7,1.6,81.5,98.3,84.1,109,63.1
N#C/C(=C\c1ccc(O)c(O)c1)C(=O)NCc1ccccc1 [Tyrphostin AG 490],-10.9,-5.7,11.2,-8.8,-27.2,105,124,139,110,105
Cn1ccnc1 [1-Methylimidazole],-9,29.4,1.4,9.5,9.3,95.9,109,104,101,92.7
Cc1ccc(O)c(N=Nc2ccccc2)n1,-7.1,-17.1,-6.2,-7.3,-28.8,123,101,103,79.1,106
"COC(=O)[C@@H](N)Cc1ccc(O)c(O)c1 [L-3,4-Dihydroxyphenylalanine methyl ester hydrochloride]",12.1,-8.5,-12.3,5.8,0.8,110,90.2,93.2,131,121
O=c1c2ccccc2[nH]c(=S)n1CCN1CCC(=C(c2ccc(F)cc2)c2ccc(F)cc2)CC1 [Diacylglycerol Kinase Inhibitor II],17.2,-11.1,9.1,2.2,14.4,88.3,84.2,84.4,74.6,72.9
O=C(O)C=C1CCCc2ccccc2C1O (stereo not given),-16.6,-2.3,0.5,17.1,17.8,90.1,89.5,137,102,127
CC(C)[N+]1(C)[C@@H]2CC[C@H]1C[C@@H](OC(=O)C(CO)c1ccccc1)C2 (stereo not given in full) [Ipratropium bromide],-13,-16.2,-15.6,-25.6,-10.4,99.4,86.5,125,90.6,81.1

# Some of these compounds in order of SMILES length, low to high.
Structure (SMILES),loss of total cells (Human fetal astrocytes [1]; 1.39 µM) [%],loss of total cells (Human fetal astrocytes [1]; 2.78 µM) [%],loss of total cells (Human fetal astrocytes [1]; 5.56 µM) [%],loss of total cells (Human fetal astrocytes [1]; 11.11 µM) [%],loss of total cells (Human fetal astrocytes [1]; 22.22 µM) [%],synaptosome phagocytosis (Human fetal astrocytes [2]; 1.39 µM) [%],synaptosome phagocytosis (Human fetal astrocytes [2]; 2.78 µM) [%],synaptosome phagocytosis (Human fetal astrocytes [2]; 5.56 µM) [%],synaptosome phagocytosis (Human fetal astrocytes [2]; 11.11 µM) [%],synaptosome phagocytosis (Human fetal astrocytes [2]; 22.22 µM) [%]
O=C(O)C=C1CCCc2ccccc2C1O (stereo not given),-16.6,-2.3,0.5,17.1,17.8,90.1,89.5,137,102,127
"N[C@@H](Cc1ccc(O)c(O)c1)C(=O)O [L-3,4-Dihydroxyphenylalanine]",3.8,-7.7,10.7,18.4,6.4,87.7,112,125,92.1,100
CN1CCc2cc(Cl)c(O)cc2[C@@H](c2ccccc2)C1,4.6,-22.2,1.6,-18.4,-8.8,99.9,101,96.6,99.5,94.4
